Library screening results

Amino acid sequences for entries named in this document (tags omitted).
UniProt E9BF75, entry or part of it: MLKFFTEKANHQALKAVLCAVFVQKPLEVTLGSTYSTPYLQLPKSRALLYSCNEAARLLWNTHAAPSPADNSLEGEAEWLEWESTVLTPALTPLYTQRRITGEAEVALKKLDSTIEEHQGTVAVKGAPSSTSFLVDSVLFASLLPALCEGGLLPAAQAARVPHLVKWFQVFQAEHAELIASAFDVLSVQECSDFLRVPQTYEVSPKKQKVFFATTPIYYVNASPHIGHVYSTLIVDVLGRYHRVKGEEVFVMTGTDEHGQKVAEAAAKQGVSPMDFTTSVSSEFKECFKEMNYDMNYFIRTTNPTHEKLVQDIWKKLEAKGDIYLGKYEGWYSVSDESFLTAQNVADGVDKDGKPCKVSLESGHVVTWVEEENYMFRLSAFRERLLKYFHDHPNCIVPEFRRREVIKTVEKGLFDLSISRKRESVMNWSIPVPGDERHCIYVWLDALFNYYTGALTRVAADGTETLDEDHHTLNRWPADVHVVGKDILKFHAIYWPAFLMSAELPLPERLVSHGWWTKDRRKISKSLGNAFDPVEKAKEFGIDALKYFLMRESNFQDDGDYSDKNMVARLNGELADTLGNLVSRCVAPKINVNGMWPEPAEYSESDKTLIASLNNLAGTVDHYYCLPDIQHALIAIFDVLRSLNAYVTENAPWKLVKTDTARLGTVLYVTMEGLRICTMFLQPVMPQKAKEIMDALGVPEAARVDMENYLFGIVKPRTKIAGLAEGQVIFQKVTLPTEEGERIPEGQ

Mtb heat-shock: 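Assay on Mycobacterium tuberculosis, filed only as a heat shock assay from Cornell; the read-out is not stated. The concentration is filed as 10 mM, unlikely as a test dose, so the dose is not known. The record gives no direction; compounds that gave an IC50 in retests scored well above the rest, so higher reads as stronger inhibition. Size under these conditions: about 69,000 compounds, about 930 of them at 50% or above in at least one test.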
Mtb growth Cornell: 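Whole-cell assay for inhibitors of Mycobacterium tuberculosis growth, labelled Cornell in the record; the read-out is not stated. The concentration is filed as 10 mM, unlikely as a test dose, so the dose is not known. The record gives no direction; compounds strong in two other growth screens of this library score well above the rest, so higher reads as stronger inhibition. Size under these conditions: about 53,000 compounds, about 900 of them at 50% or above in at least one test.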
LdMetRS: 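Methionyl-tRNA synthetase (putative), Leishmania donovani (UniProt E9BF75). Primary screen of methionyl-tRNA synthetase; the read-out is not stated. The test concentration is not given. The values are filed as inhibition. Of about 68,000 compounds tested this way, about 24 (0.035%) reached 50% or more in at least one test.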

All values are in %. How 0% and 100% were set is not recorded. Most values in the screen are low, and negative values occur. The compounds are a random part of those screened. A dash means the value is not listed here; it may have been measured.

| SMILES | Mtb heat-shock | Mtb growth Cornell | LdMetRS |
|---|---|---|---|
| `[H][C@@]12CCN(C(=O)Cc3ccc(C)cc3)C[C@]1(COC)CCO2` | -32.67% | -29.65% | - |
| `CCOc1ccc(C(=O)N2CCN(c3nccn3C)CC2)cc1` | - | - | 7.285% |
| `Cc1cc(C)nc(N2CCC(OCCN3CCCCC3)C2)n1` (configuration not stated) | -14.62% | 3.084% | 2.452% |
| `CN(Cc1cc[nH]n1)C(C(=O)O)c1ccc(Cl)cc1` (configuration not stated) | 14.09% | -5.697% | 9.415% |
| `CNC(=O)CN1CCOC(c2cccc(N)n2)C1` (configuration not stated) | 23.12% | -2.258% | 16.8% |
| `CC(C#N)CSc1ccccc1NCC(=O)Nc1ccccc1` (configuration not stated) | -12.84% | -70.93% | -4.891% |
| `Cc1ccc(CN2CCCC3(CCN(Cc4ccoc4)CC3)C2)cc1.O=C(O)C(F)(F)F.O=C(O)C(F)(F)F` | -38.18% | 13.96% | - |
| `Cc1cccc(C)c1OC1CN(C(=O)C2CC(=O)N(C(C)(C)C)C2)C1` (configuration not stated) | -23.05% | - | 4.375% |
| `Cc1csc(NC(=O)[C@@H]2C[C@H]3[C@H](CCN3S(C)(=O)=O)O2)n1` | - | - | 16.48% |
| `CN(CCO)Cc1nnc(C2CCN(C(=O)C(C)(C)C)CC2)n1C` | 10.62% | 23.23% | 13.66% |
| `CC(NC(=O)NCc1cccc(F)c1)(C(=O)O)c1ccco1` (configuration not stated) | -9.619% | -18.76% | 12.57% |
| `NC(=O)CN(CC(=O)NCCc1c(F)cccc1F)C1CCCC1` | -12.35% | -23.74% | 9.441% |
| `CN(C)CCCN1CC2(CCN(C3CCCOC3)CC2)OC1=O` (configuration not stated) | -43.41% | 20.88% | 12.04% |
| `c1ccc(CN2CCOC3CNCC[C@H]32)cc1` (some centres not stated) | - | - | 12.2% |
| `CN(Cc1cnn(C)c1)C(=O)CCS(=O)(=O)c1ccc2c(c1)OCCO2` | -4.464% | 6.803% | 11.98% |
| `CN(CCn1cccn1)C1CCCN(Cc2noc(C3CC3)n2)C1` (configuration not stated) | 10.66% | -11.3% | 8.451% |
| `O=C(NCCC1CCCO1)c1ccccc1N1CCOCC1` (configuration not stated) | -9.181% | 16.52% | 19.5% |
| `CC(=O)c1cccc(CN2CC(Oc3ccccc3C)C2)c1` | -13.04% | 27.2% | 19.06% |
| `CC1(C)CN(CC(O)C(C)(C)C)C(=O)CN(C(=O)c2ccccc2)C1` (configuration not stated) | 2.704% | 6.08% | 9.459% |
| `O=C(NCc1ccco1)[C@H]1COC[C@H]2CN(Cc3ccoc3)C[C@H]21` | - | - | 3.483% |
| `COCCC(=O)N1CCC(c2cncc(Oc3cccnc3)n2)CC1` | 51.38% | -4.018% | 7.345% |
| `CCc1nncn1CCNC(=O)Nc1ccc2c(c1)CCCO2` | -4.849% | - | 10.77% |
| `[H][C@@]12CCN(CC3CCOCC3)C[C@@]1([H])O[C@@H](C)C2` | -23.53% | -1.306% | - |
| `CC(C)c1nnc(CN2CCCC2C(=O)OCc2ccccc2)o1` (configuration not stated) | -4.451% | 33.83% | 4.57% |
| `Cn1cc(Br)c(=O)c(NS(=O)(=O)c2ccc(Cl)cc2)c1` | 9.686% | - | 9.645% |
| `CC(Cn1cccn1)NC(=O)N1CCN(Cc2cccs2)CC1` (configuration not stated) | -9.931% | - | 4.895% |
| `NC(=O)COc1ccc(CNCc2cc(F)cc(F)c2)cc1` | - | - | 16.15% |
| `CN1CC2(CCN(C(=O)c3ccc4nccnc4c3)CC2)CC1=O` | -8.419% | -4.382% | 15.08% |
| `CCc1ncnc2c1CCN(Cc1cccs1)CC2` | - | - | 6.84% |
| `Cc1nc(CN2CCC3(CCCN(Cc4cnn(C)c4)C3)C2=O)cs1` (configuration not stated) | - | - | 17.99% |
| `Cc1cnn(CC2CCCN2C(=O)Cc2cn3ccsc3n2)c1` (configuration not stated) | -13% | -9.479% | 9.487% |
| `CSCCCN1C[C@H](NC(=O)c2cnn(C)c2)[C@@H](C2CC2)C1` | -28.59% | -22.4% | 14.2% |
| `O=C(O)C(F)(F)F.O=C1N(CC2CC2)CCC12CCN(Cc1ccoc1)CC2` | -2.679% | -1.631% | - |
| `CCN(Cc1cccc2c1OCO2)C(=O)NCc1ccccn1` | -18.37% | - | 6.557% |
| `Cn1cnnc1Sc1ccc(NC(=O)C2CC2)cc1Cl` | 36.02% | 23.41% | 8.397% |
| `Cc1c(C(=O)NC2=NCCS2)cnn1-c1ccc(Cl)cc1` | 22.26% | -18.59% | 0.2584% |
| `Cc1nn(C)c(N(C)C)c1CNCCOc1ccc2c(c1)OCO2.Cl` | 22.69% | - | - |
| `O=C(c1ccsc1)N1CCc2ncc(Cn3cncn3)n2CC1` | 1.855% | -11.45% | 12.94% |
| `Cn1cc(-c2nc(C3CCN(CC4CC4)CC3)cc3c2ncn3C)cn1` | 6.694% | 19.58% | 11.59% |
| `COC1CCN(c2ccc(NC(=O)Cn3cccc3)cc2)CC1` | 14.99% | 46.11% | 11.78% |

Measurements from “University of Dundee, Small-Polar-MMV Screening Library” (2021), ChEMBL document CHEMBL3988442.